From the supplement of paper PMC10849652
This is one part of the list.

The chains behind the UniProt entries cited, without tags or fusion partners. Where a name states a change or a piece, a line headed by the entry shows the natural chain unless it says otherwise.
UniProt Q9UK76: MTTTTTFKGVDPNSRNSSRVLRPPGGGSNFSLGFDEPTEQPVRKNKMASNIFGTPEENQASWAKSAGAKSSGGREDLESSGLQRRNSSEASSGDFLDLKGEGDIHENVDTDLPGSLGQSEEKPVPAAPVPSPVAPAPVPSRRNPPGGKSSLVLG
UniProt P17535: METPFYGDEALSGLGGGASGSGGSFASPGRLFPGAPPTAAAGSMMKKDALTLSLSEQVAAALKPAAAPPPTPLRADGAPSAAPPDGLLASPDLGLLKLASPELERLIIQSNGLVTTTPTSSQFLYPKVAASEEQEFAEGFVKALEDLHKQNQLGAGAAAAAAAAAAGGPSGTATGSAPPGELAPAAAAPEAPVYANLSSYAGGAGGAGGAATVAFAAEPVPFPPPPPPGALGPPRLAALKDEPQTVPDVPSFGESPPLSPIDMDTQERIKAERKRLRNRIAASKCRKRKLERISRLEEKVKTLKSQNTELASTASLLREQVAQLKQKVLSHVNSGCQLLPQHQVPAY
UniProt Q9BVA0, whole entry, looked up: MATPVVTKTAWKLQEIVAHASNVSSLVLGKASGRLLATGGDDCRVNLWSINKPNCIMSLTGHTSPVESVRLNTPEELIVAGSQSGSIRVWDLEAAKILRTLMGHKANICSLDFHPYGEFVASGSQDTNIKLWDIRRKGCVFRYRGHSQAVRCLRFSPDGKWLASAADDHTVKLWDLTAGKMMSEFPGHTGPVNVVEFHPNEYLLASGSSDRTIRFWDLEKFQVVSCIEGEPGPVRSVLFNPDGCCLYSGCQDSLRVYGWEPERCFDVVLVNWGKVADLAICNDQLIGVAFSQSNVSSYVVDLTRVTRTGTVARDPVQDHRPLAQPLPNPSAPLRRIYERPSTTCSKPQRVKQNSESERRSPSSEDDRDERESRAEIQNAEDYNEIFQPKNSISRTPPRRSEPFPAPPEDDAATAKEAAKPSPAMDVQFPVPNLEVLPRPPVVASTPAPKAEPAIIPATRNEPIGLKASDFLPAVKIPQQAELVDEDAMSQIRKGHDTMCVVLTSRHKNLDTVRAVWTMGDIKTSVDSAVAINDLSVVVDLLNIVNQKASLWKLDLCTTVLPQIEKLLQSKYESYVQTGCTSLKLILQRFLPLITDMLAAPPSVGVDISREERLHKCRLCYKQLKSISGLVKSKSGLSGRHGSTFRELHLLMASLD
UniProt Q15811: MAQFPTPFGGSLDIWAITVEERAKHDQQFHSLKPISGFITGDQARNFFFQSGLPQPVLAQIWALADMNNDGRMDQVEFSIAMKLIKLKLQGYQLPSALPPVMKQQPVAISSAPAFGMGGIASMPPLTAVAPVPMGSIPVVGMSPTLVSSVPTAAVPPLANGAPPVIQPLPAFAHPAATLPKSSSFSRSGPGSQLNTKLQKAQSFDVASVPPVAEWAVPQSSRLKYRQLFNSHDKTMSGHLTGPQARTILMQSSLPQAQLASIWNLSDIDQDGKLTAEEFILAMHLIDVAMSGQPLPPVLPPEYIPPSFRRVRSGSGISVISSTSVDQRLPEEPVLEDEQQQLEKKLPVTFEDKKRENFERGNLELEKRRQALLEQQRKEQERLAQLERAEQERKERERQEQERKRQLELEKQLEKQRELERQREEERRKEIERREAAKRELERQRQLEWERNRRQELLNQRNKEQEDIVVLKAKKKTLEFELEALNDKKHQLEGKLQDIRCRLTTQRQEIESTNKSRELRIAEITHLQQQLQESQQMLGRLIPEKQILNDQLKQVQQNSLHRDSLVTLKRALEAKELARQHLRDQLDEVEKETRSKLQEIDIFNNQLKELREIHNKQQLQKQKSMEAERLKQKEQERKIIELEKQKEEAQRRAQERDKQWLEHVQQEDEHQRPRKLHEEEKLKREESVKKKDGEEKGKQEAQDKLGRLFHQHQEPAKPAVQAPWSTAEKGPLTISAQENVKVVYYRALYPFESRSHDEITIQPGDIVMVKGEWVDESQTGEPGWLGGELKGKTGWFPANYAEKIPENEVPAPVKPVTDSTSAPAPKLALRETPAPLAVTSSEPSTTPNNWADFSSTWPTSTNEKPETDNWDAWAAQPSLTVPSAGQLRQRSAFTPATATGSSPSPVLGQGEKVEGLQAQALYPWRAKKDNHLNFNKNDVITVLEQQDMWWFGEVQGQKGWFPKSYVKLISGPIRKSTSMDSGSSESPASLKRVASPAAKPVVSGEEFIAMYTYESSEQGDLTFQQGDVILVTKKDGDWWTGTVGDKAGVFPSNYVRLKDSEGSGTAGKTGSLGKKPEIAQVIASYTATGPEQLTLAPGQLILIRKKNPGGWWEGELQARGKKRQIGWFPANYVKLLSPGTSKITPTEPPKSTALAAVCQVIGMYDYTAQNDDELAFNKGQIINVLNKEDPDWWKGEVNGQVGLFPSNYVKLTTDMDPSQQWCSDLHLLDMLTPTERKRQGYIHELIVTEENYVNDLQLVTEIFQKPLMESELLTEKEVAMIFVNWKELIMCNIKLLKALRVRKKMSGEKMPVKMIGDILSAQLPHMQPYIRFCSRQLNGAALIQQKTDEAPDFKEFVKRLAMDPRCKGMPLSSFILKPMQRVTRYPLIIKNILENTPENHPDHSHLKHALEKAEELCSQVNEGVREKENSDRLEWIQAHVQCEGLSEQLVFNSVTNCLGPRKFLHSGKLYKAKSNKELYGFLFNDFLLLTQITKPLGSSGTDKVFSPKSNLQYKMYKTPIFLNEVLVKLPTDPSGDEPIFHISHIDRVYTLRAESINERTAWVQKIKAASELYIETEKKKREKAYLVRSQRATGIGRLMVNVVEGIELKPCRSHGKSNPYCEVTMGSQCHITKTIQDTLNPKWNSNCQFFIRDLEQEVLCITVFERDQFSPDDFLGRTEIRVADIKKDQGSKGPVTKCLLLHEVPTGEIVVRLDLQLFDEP
UniProt Q9NXV2: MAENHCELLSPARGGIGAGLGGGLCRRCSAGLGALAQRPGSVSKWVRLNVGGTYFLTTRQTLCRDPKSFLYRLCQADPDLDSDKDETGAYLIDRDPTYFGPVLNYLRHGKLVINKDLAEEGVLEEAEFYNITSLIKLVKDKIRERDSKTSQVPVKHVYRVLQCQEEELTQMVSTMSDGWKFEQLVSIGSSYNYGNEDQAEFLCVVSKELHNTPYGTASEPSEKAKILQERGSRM
UniProt Q7Z5L9: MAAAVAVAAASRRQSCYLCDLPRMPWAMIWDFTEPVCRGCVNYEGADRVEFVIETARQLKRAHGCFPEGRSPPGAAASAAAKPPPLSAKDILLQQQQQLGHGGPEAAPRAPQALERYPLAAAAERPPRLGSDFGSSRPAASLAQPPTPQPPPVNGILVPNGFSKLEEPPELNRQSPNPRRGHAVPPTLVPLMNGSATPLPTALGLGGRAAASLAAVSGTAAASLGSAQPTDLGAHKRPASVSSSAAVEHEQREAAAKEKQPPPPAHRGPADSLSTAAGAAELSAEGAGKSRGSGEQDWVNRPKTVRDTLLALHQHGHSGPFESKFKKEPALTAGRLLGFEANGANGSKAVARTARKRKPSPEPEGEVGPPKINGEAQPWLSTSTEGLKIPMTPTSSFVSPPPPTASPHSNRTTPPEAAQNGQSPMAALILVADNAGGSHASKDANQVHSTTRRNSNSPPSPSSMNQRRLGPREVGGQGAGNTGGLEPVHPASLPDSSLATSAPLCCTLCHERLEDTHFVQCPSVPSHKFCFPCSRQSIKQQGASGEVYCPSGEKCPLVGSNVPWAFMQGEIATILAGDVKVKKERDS
UniProt Q7Z5Y7: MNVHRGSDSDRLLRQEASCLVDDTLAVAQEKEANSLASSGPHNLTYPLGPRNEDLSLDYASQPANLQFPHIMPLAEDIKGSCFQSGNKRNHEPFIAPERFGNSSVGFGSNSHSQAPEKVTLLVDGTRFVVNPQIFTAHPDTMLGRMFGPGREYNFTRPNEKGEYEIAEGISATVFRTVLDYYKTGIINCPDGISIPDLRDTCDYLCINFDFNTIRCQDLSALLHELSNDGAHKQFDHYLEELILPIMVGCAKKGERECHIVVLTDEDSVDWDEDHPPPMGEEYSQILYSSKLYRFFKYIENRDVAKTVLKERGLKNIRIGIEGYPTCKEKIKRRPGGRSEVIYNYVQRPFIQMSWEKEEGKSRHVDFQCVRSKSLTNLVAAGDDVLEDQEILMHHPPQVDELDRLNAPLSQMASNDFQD
UniProt Q4G0X4: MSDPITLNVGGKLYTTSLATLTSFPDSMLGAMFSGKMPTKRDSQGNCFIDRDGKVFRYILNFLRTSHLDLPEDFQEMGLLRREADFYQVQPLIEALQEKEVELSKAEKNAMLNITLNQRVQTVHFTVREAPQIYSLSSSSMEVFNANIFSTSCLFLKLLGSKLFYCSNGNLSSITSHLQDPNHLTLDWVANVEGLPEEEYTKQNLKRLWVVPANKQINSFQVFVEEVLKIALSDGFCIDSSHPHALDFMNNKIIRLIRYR
UniProt O43731: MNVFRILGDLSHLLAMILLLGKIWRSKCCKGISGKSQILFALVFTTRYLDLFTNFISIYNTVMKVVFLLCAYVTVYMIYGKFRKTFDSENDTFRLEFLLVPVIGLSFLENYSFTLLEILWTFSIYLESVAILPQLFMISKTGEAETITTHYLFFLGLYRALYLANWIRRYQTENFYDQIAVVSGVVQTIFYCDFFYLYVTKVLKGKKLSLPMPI
UniProt Q86VI3: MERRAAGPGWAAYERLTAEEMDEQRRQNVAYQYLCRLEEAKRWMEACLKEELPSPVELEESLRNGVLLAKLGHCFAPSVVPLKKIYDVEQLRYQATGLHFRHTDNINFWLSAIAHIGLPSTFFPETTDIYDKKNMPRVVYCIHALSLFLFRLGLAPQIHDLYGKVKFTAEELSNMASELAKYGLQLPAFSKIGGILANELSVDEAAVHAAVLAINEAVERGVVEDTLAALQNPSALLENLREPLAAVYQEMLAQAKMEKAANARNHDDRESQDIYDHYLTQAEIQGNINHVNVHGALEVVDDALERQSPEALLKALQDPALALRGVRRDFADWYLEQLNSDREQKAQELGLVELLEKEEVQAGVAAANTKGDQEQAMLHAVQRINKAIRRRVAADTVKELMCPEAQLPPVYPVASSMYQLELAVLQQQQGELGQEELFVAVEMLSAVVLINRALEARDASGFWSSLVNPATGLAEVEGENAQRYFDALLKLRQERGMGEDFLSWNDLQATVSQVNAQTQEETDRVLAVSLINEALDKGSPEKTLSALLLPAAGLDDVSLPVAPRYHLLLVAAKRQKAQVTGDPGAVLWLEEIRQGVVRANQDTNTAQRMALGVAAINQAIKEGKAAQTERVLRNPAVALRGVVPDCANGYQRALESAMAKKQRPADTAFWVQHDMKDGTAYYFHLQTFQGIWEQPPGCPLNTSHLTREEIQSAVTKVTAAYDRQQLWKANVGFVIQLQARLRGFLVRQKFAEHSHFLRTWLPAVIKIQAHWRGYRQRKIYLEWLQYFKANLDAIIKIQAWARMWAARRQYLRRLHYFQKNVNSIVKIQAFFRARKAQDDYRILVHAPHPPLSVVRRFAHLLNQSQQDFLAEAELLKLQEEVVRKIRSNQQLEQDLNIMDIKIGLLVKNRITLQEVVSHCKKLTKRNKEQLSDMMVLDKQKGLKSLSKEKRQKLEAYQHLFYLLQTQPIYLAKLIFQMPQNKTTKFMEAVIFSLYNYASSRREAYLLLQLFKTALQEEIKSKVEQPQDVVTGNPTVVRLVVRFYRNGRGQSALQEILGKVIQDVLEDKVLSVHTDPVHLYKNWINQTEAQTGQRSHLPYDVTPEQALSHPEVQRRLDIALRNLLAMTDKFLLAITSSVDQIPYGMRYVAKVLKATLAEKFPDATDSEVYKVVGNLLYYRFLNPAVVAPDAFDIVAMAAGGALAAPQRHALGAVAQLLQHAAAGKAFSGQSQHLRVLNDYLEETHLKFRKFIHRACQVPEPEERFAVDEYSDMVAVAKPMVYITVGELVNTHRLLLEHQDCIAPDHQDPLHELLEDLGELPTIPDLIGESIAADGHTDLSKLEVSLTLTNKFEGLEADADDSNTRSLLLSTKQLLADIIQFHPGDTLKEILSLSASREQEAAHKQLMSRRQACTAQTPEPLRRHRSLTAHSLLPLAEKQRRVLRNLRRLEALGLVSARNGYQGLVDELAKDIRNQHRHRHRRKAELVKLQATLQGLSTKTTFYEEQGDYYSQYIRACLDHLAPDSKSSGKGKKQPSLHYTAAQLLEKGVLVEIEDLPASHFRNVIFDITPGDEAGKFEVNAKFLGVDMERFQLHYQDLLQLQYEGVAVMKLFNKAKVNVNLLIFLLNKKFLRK
UniProt Q9H079: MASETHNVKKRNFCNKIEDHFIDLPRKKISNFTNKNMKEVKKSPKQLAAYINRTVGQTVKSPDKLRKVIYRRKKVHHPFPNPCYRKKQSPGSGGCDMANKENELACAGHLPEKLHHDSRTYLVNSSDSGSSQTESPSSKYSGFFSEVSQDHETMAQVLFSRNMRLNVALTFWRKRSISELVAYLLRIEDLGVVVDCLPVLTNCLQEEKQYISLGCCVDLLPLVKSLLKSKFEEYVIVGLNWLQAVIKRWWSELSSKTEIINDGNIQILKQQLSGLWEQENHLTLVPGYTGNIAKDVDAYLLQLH

How the values were obtained:
Test in all cases: log2 fold change, soluble protein after heating vs DMSO (PISA); higher = thermal stabilisation; K562 lysate, 10 uM; active = over 0.2 and 3.5 SD of the protein, either way, in both replicates (recomputed)
erlotinib = compound: C#Cc1cccc(Nc2ncnc3cc(OCCOC)c(OCCOC)cc23)c1 [erlotinib]
How it was run: (§1)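 Quantification was by TMTpro 16plex LC-MS/MS with equalised channel sums, applied to the supernatant after 21,000xg for 90 min. Samples were crude K562 extract at 1 mg/mL protein in PBS pH 7.4 with 1 mM MgCl2, treated with 10 μM compound for 30 min, heated for 3 min across 48°C-58°C, pooled and brought to 0.5% NP-40 at 4°C. Values are log-two fold changes in thermal stability relative to solvent controls, from duplicates.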

[1] = compound: C/C(=N\NC(=O)C1=CC(=CC=C1)S(=O)(=O)N2CCOCC2)/C3=C(C=CC(=C3)Cl)O
How it was run: as §1

[2] = compound: C1=CC(=CC=C1C2=NC3=C(N2)C=C(C=C3)C(=O)N)OC4=CC=C(C=C4)Cl
How it was run: as §1

[3] = compound: C1=CC2=C(C=CC(=C2)/C=C\3/C(=O)NC(=NCC4=CC=CS4)S3)N=C1
How it was run: as §1

[4] = compound: C1=CC2=NC=CN=C2C=C1/C=C/3\C(=O)NC(=O)S3
How it was run: as §1

[5] = compound: C1=CC=C(C=C1)C2=NC(=C(N2)C3=CC=NC=C3)C4=CC(=C(C=C4)Cl)O
How it was run: as §1

[6] = compound: C1=CC=C2C(=C1)C3=NNC4=CC=CC(=C43)C2=O
How it was run: as §1

[7] = compound: C1CCN(C1)C(=O)NC2=CC=CC(=C2)NC3=NC=C(C(=N3)NCCC4=CN=CN4)Br
How it was run: as §1

[8] = compound: C1CN(CCC1(CC2=CC=C(C=C2)Cl)N)C3=NC=NC4=C3C=CN4
How it was run: as §1

IRAK-1-4 Inhibitor I = compound: C1COCCN1CCN2C3=CC=CC=C3N=C2NC(=O)C4=CC(=CC=C4)[N+](=O)[O-] [IRAK-1-4 Inhibitor I]
How it was run: as §1

| Target | log2 fold change (erlotinib) | log2 fold change [1] | log2 fold change [2] | log2 fold change [3] | log2 fold change [4] | log2 fold change [5] | log2 fold change [6] | log2 fold change [7] | log2 fold change [8] | log2 fold change (IRAK-1-4 Inhibitor I) |
| --- | --- | --- | --- | --- | --- | --- | --- | --- | --- | --- |
| KATNA1 (UniProt O75449) | inactive: 0.011 | inactive: 0.033 | inactive: -0.021 | inactive: -0.06 | inactive: -0.044 | inactive: 0.034 | inactive: -0.045 | inactive: 0.004 | inactive: 0.01 | inactive: 0.023 |
| ITPK1 (UniProt Q13572) | inactive: -0.01 | inactive: 0.1 | inactive: 0.13 | inactive: 0.109 | inactive: -0.045 | inactive: -0.005 | inactive: -0.073 | inactive: 0.026 | inactive: -0.022 | inactive: 0.009 |
| JPT1 (UniProt Q9UK76) | inactive: 0 | inactive: -0.01 | inactive: 0.03 | inactive: -0.001 | inactive: -0.018 | inactive: 0.004 | inactive: 0.003 | inactive: 0.008 | inactive: 0.034 | inactive: 0.011 |
| JUND (UniProt P17535) | inactive: -0.017 | inactive: -0.083 | inactive: -0.012 | inactive: 0 | inactive: -0.008 | inactive: -0.053 | inactive: -0.04 | inactive: 0.007 | inactive: 0.012 | inactive: 0.024 |
| KAZN (UniProt Q674X7) | inactive: 0.002 | inactive: -0.061 | inactive: 0.165 | inactive: 0 | inactive: -0.011 | inactive: -0.023 | inactive: -0.022 | inactive: -0.057 | inactive: 0.039 | inactive: 0.063 |
| IPO5 isoform 3 (UniProt O00410) | inactive: 0.009 | inactive: 0.006 | inactive: -0.018 | inactive: 0.004 | inactive: 0.008 | inactive: -0.007 | inactive: 0.031 | inactive: -0.012 | inactive: 0.033 | inactive: 0.031 |
| KATNB1 (UniProt Q9BVA0) | inactive: 0.096 | inactive: 0.006 | inactive: 0.052 | inactive: 0.018 | inactive: -0.006 | inactive: -0.002 | inactive: -0.053 | inactive: 0.02 | inactive: -0.055 | inactive: 0.009 |
| ITSN1 isoform 8 (UniProt Q15811) | inactive: -0.018 | inactive: -0.007 | inactive: 0.039 | inactive: 0.002 | inactive: -0.151 | inactive: 0.054 | inactive: 0.051 | inactive: -0.06 | inactive: 0.008 | inactive: 0.022 |
| KCTD5 (UniProt Q9NXV2) | inactive: -0.042 | inactive: -0.04 | inactive: 0.017 | inactive: 0.041 | inactive: -0.026 | inactive: -0.043 | inactive: -0.026 | inactive: -0.062 | inactive: 0.092 | inactive: 0.046 |
| KCNAB2 (UniProt Q13303) | inactive: -0.064 | inactive: -0.062 | inactive: -0.007 | inactive: 0.084 | inactive: 0.003 | inactive: -0.023 | inactive: -0.011 | inactive: -0.021 | inactive: -0.012 | inactive: 0.003 |
| KBTBD4 isoform 2 (UniProt Q9NVX7) | inactive: 0.09 | inactive: 0.013 | inactive: 0.036 | inactive: 0.013 | inactive: -0.096 | inactive: 0.016 | inactive: -0.073 | inactive: -0.028 | inactive: 0.013 | inactive: -0.017 |
| IRF3 (UniProt Q14653) | inactive: 0.046 | inactive: -0.003 | inactive: 0.007 | inactive: -0.029 | inactive: 0.034 | inactive: 0.002 | inactive: 0 | inactive: 0.002 | inactive: 0.013 | inactive: 0.032 |
| INTS5 (UniProt Q6P9B9) | inactive: 0.002 | inactive: -0.061 | inactive: -0.082 | inactive: -0.04 | inactive: 0.068 | inactive: -0.072 | inactive: -0.098 | inactive: -0.001 | inactive: 0.247 | inactive: -0.015 |
| JMJD4 (UniProt Q9H9V9) | inactive: 0.089 | inactive: -0.023 | inactive: -0.12 | inactive: -0.072 | inactive: -0.101 | inactive: 0.007 | inactive: -0.077 | inactive: 0.044 | inactive: 0.031 | inactive: 0.076 |
| IRF2BP2 (UniProt Q7Z5L9) | inactive: -0.049 | inactive: 0.026 | inactive: 0.023 | inactive: 0.002 | inactive: -0.015 | inactive: 0.018 | inactive: -0.012 | inactive: -0.018 | inactive: -0.011 | inactive: 0.037 |
| IRF2BP1 (UniProt Q8IU81) | inactive: -0.024 | inactive: -0.114 | inactive: 0.022 | inactive: -0.016 | inactive: 0.021 | inactive: -0.039 | inactive: -0.021 | inactive: -0.057 | inactive: 0.006 | inactive: -0.018 |
| KCTD20 (UniProt Q7Z5Y7) | inactive: 0.072 | inactive: -0.145 | inactive: -0.006 | inactive: 0 | inactive: 0.001 | inactive: 0.063 | inactive: 0.038 | inactive: 0.081 | inactive: 0.083 | inactive: 0.048 |
| KCTD21 (UniProt Q4G0X4) | inactive: 0.001 | inactive: 0.004 | inactive: 0.041 | inactive: -0.072 | inactive: -0.069 | inactive: 0.078 | inactive: 0.002 | inactive: -0.018 | inactive: 0.061 | inactive: -0.157 |
| KDELR3 (UniProt O43731) | inactive: -0.033 | inactive: 0.151 | inactive: -0.353 | inactive: -0.185 | – | inactive: -0.014 | inactive: 0.258 | inactive: 0.018 | inactive: -0.036 | inactive: -0.061 |
| IWS1 (UniProt Q96ST2) | inactive: -0.022 | inactive: -0.1 | inactive: 0.027 | inactive: 0.061 | inactive: -0.022 | inactive: 0.016 | inactive: -0.035 | inactive: -0.002 | inactive: 0.002 | inactive: -0.002 |
| IQGAP3 (UniProt Q86VI3) | inactive: -0.064 | inactive: 0.115 | inactive: -0.017 | inactive: -0.047 | inactive: -0.062 | inactive: 0.002 | inactive: -0.143 | – | – | inactive: -0.065 |
| JAK2 (UniProt O60674) | inactive: -0.054 | inactive: -0.043 | inactive: -0.058 | inactive: 0.117 | – | inactive: -0.069 | inactive: 0.105 | – | – | inactive: 0.048 |
| JOSD1 (UniProt Q15040) | inactive: 0.045 | – | inactive: 0.101 | – | – | – | – | – | – | – |
| IPO11 isoform 2 (UniProt Q9UI26) | inactive: 0.021 | inactive: -0.01 | inactive: 0.035 | inactive: 0.025 | inactive: 0 | inactive: -0.029 | inactive: -0.041 | inactive: -0.007 | inactive: 0.02 | inactive: 0.008 |
| KDM3A (UniProt Q9Y4C1) | inactive: -0.017 | inactive: 0.043 | inactive: -0.036 | inactive: 0.001 | inactive: -0.015 | inactive: 0.021 | inactive: 0.084 | inactive: -0.031 | inactive: 0.022 | inactive: -0.005 |
| KCTD10 (UniProt Q9H3F6) | inactive: 0.027 | inactive: 0.016 | inactive: 0.059 | inactive: -0.019 | inactive: -0.09 | inactive: 0.012 | inactive: 0.023 | inactive: -0.018 | inactive: 0.052 | inactive: -0.004 |
| KATNBL1 (UniProt Q9H079) | inactive: -0.012 | inactive: 0.009 | inactive: -0.02 | inactive: 0.064 | – | – | inactive: -0.001 | inactive: 0.045 | active: -0.687 | – |
| INTS6 (UniProt Q9UL03) | inactive: -0.153 | inactive: 0.01 | inactive: -0.224 | inactive: -0.032 | inactive: -0.165 | – | inactive: -0.125 | inactive: 0.119 | inactive: -0.071 | – |

Copied from the results shown (2 entries):

| Target | log2 fold change (erlotinib) | log2 fold change [1] | log2 fold change [2] | log2 fold change [3] | log2 fold change [4] | log2 fold change [5] | log2 fold change [6] | log2 fold change [7] | log2 fold change [8] | log2 fold change (IRAK-1-4 Inhibitor I) |
| --- | --- | --- | --- | --- | --- | --- | --- | --- | --- | --- |
| KAZN (UniProt Q674X7) | inactive: 0.002 | inactive: -0.061 | inactive: 0.165 | inactive: 0 | inactive: -0.011 | inactive: -0.023 | inactive: -0.022 | inactive: -0.057 | inactive: 0.039 | inactive: 0.063 |
| IPO5 isoform 3 (UniProt O00410) | inactive: 0.009 | inactive: 0.006 | inactive: -0.018 | inactive: 0.004 | inactive: 0.008 | inactive: -0.007 | inactive: 0.031 | inactive: -0.012 | inactive: 0.033 | inactive: 0.031 |
